The record followed here is publication PMC5180163.

Assay [1] deals with Sdt-GFP (Ubi::Sdt-GFP), expressed in Drosophila embryos (Drosophila). As to the kind of experiment: co-IP; lysate of embryos expressing GFP-tagged Sdt variants (Ubi::Sdt-GFP); IP with rabbit anti GFP, protein A/G agarose; bound endogenous proteins by western blot. For orientation: Immunoblotting shows a protein as a band on a membrane.
Assay [2] addresses SdtΔPDZ-GFP, expressed in Drosophila embryos (Drosophila). Described as above.
In assay [3] the target is SdtΔSH3-GFP, expressed in Drosophila embryos (Drosophila). The description is as above.
In assay [4] the target is Endogenous Stardust (Sdt) of Drosophila embryos (Drosophila (endogenous in embryos)). The experiment in a line: co-IP; lysate of w- embryos (1% Triton X-100, 150 mM NaCl, 1 mM CaCl2, 1 mM MgCl2, 50 mM Tris-HCl pH 7.5); IP with mouse anti Sdt, control IP with anti β-galactosidase; protein A/G agarose, western blot.

No constants are given. Whether binding was seen depends on the method and setting. In cells and extracts the contact can be indirect. A result given as binding can be weak or reduced; the word gives no strength.

B1: Endogenous PATJ of Drosophila embryos (protein, UniProt Q9NB04 1-871)
chain: MHLSADISSALQQIEAVKKGIDESDDPKLQMQTAESLSTILGILQDPVFRTIVHVQDSLSELNAQLAQHPSMLPNDFDIDVAGNLVLSLNGGEVMYDFDEQRSSSHSHSAPGSPDKSGGVGEEPRPQSQNSKGAGVADLYATDYAQIQAIELVNDGTGLGFGIIGARNSGVIVKTILPGGVADKDGRLRSGDHILQIGDVNLHEMVSEQVAAVLRQSGTHVRLVVARPVEQSVPTPQYALEPGTAVVPTRVLVDPAELERYLISTGYPEIFGESSTASTPQTTTEDDRFVYRGETSMLIDPNIDLEELLALPETEKLQVELKKDANGLGITIAGYVCEKEELSGIFVKSVSPGSAADLSGRIRVNDRIIEVDGQSLQGYSNHQAVELLKKSGQVVNLRLERYLRGPKFEQLQQAIAANDKLPSSAPGTPSRAPMPTPVATTSSATTTPSRSITRELEEEALPAPEAFMTTPPSVTTMTTTTLSSFGAGKQLVAVRDSLDGSTKIIPTEVVPLADKTEAKNSGVITRHKYYTDPELSDDAETEIIRKWQKIVGSDVEVIVAQIKKFAVGGLGISLEGTVDVEGGREVRPHHYIRSILPDGPVGVNGVLRSGDELLEVNGERLLGMNHLEVVAILKELPLDVRMVCGRNRNSSLLPFSDDTLKKLSNNFENLLPATDRLVKAKSDGSLATAGSVADGDSVAAAAASFSKLKSRSLEPLTGLAMWSSQPQIIELVKGDRGLGFSILDYQDPLDPNDTLIVIRSLVPGGVAQLDGRLIPGDRLLFVNSINLENASLDQAVQALKGASKGVVRIGVAKPLPMTDNSLKACSNASTTSEETLDAQPSPPALPTVAPPAMPPSASMGAEPDLIPDWRN
In the case of B1, the binding entry in assay [1], in assay [2], in assay [3] and in assay [4] was “binds” in each case.

B2: Endogenous aPKC (atypical protein kinase C) of Drosophila embryos (enzyme, UniProt A1Z9X0 1-606)
chain: MQKMPSQILNDGSSVSLNSASMNMANTPNSITVKTAYNGQIIITTINKNISYEELCYEIRNICRFPLDQPFTIKWVDEENDPCTISTKMELDEAIRLYEMNFDSQLVIHVFPNVPQAPGLSCDGEDRSIYRRGARRWRKLYRVNGHIFQAKRFNRRAFCAYCQDRIWGLGRQGFKCIQCKLLVHKKCHKLVQKHCTDQPEPLVKERAEESSDPIPVPLPPLPYEAMSGGAEACETHDHAHIVAPPPPEDPLEPGTQRQYSLNDFELIRVIGRGSYAKVLMVELRRTRRIYAMKVIKKALVTDDEDIDWVQTEKHVFETASNHPFLVGLHSCFQTPSRLFFVIEFVRGGDLMYHMQRQRRLPEEHARFYAAEISLALNFLHEKGIIYRDLKLDNVLLDHEGHIKLTDYGMCKEGIRPGDTTSTFCGTPNYIAPEILRGEDYGFSVDWWALGVLLYEMLAGRSPFDLAGASENPDQNTEDYLFQVILEKTIRIPRSLSVRAASVLKGFLNKNPADRLGCHRESAFMDIVSHPFFKNMDWELLERKQVTPPFKPRLDSDRDLANFPPEFTGEAVQLTPDDDHVIDNIDQSEFEGFEYVNPLLMSLEDCV
Turning to B2, the binding result in assay [4] is “binds”.

B3: Endogenous PAR-6 of Drosophila embryos (protein, UniProt O97111 1-351)
chain: MSKNKINTTSATAASDTNLIEVKSKFDAEFRRWSFKRNEAEQSFDKFASLIEQLHKLTNIQFLILYIDPRDNDLLPINNDDNFGRALKTARPLLRVIVQRKDDLNEYSGFGTMKPRNLIGSILMGHTPVKTKAPSISIPHDFRQVSAIIDVDIVPETHRRVRLLKHGSDKPLGFYIRDGTSVRVTASGLEKQPGIFISRLVPGGLAESTGLLAVNDEVIEVNGIEVAGKTLDQVTDMMVANSSNLIITVKPANQRTLTSTHRGSFSRNSQLSSGSHHTNNTNTSDEIEHDDQDDIVDLTGVTLDESPTSTSAGNHNHQPPLSSSPSSHHQQAASNASTIMASDVKDGVLHL
On to B3, for which the binding result in assay [4] is on record as “no binding”.
